No constants are given. Whether binding was seen depends on the method and setting. In cells and extracts the contact can be indirect. Binding calls can cover weak binding; strength is not graded here. Where a sequence is shown, tags or fusion partners need not be part of it.

For this assay, the target named is T1, GST-LKB1 (UniProt Q15831).
T1 sequence: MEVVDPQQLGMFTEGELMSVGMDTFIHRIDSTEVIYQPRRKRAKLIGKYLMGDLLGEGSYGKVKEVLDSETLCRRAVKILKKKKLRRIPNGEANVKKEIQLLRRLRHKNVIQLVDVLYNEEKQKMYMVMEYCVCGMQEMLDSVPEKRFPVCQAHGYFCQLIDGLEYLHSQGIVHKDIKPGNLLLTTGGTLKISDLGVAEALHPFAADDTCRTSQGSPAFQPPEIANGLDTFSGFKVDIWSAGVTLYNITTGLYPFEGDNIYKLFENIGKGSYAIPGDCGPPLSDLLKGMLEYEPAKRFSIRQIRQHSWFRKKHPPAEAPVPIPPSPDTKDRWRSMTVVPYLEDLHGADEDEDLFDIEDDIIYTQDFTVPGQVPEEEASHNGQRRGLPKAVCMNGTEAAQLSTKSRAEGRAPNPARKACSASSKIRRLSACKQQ
The assay can be described thus: pull-down.

Regarding “Venus-flag (VF)-tagged cIAP1 BIR1 domain truncation (B1) (domain or fragment)”, the binding entry is given as “binds”. The result for “Venus-flag (VF)-tagged cIAP1 BIR2 domain truncation (B2) (domain or fragment)” reads “binds”.

The values above are taken from paper doi:10.1101/2021.09.17.460294.
